Values from PubChem BioAssay AID602196 (INSERM, 2012).
Here is a random part of about 23,000 deposited reagents. Over the whole deposit, 455 (2%) were called active. 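Active includes both protection and sensitisation; some change values fall well beyond the stated -50 to +50 range.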 A number with no mark means an inactive call. The numbers tell different reagents against one gene apart. Reagent sequences are not shown. Not given: the amount of reagent.

- Screen: 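Modifiers of cisplatin sensitivity in A549 cells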
- Cells: human A549 lung cancer cells
- Reagents: siRNA pair against human genes
- Duration: 48 h transfection before cisplatin; time from cisplatin to read-out not stated
- Treatment: cisplatin at a dose killing half of control-siRNA cells; exact dose and duration not given
- Detection: 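Cisplatin cell death as a shift from the 50% death seen with control siRNA; siRNAs toxic or growth-blocking alone scored 0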
- Direction: two-siRNA summed score (-2 to +2): higher = both siRNAs protect from cisplatin killing; -2 means both sensitise; mean protection from cisplatin (shift in death) and protection from cisplatin (shift in death), siRNA C and protection from cisplatin (shift in death), siRNA D: higher = protection from cisplatin killing
- Call rule: 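Each siRNA scores 0 if harmful alone by LDH or WST-1, otherwise +1 if it reduces and -1 if it increases cisplatin killing; a gene is active when both siRNAs agree (sum +2 or -2)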
- Calls: active = both siRNAs shift cisplatin killing the same way; inactive = no consistent shift, or siRNA harmful alone

Target gene	reagent no.	two-siRNA summed score (-2 to +2)	mean protection from cisplatin (shift in death) (%)	protection from cisplatin (shift in death), siRNA C (%)	protection from cisplatin (shift in death), siRNA D (%)
ASCC2	1	0	-3.6	-7.1	0
TAFA5	1	0	25.7	13	38.3
IFNA10	1	-1	6.9	28.3	-14.6
CTPS2	1	0	9	7.1	10.9
ZNF662	1	0	1.1	-2.6	4.9
LOC441700	1	0	10.7	8.5	12.9
CTDSP2	1	0	-5.7	-4.8	-6.5
SIRT4	1	-1	2.1	-27.1	31.3
LOC442044	1	1	16.1	23.2	9
HMGA2	1	0	-1.3	-14.8	12.2
TECTB	1	0	2.5	-1.3	6.3
YWHAEP7	1	0	5.9	2.5	9.3
ZIM2	1	0	1.7	-7.4	10.7
POFUT3	1	0	2.4	-4.9	9.7
LOC339942	1	1	6	-2.5	14.5
PIP4K2C	1	1	18.9	25.3	12.6
ABHD4	1	0	0.4	-0.8	1.5
B4GALNT4	1	1	8.9	6.8	11
LOC402463	1	0	11.7	16.9	6.6
NIPA1	1	1	21	16.9	25
RPS2	1	0	28.3	25.1	31.4
SPRYD3	1	0	16	33.4	-1.4
CSTPP1	1	0	6.3	8.2	4.3
ZDHHC16	1	-1	5.8	17.8	-6.3
NTN1	1	0	-1.5	6.9	-10
TBC1D23	1	-1	-21.3	-11.1	-31.6
SLAIN2	1	0	10.3	10.8	9.9
LOC341356	1	0	8.2	3.9	12.4
FBXO11	1	0	4.5	-0.7	9.7
LOC388814	1	0	-5.9	-16.1	4.4
PRSS48	1	0	6.6	8.5	4.7
ZNF432	1	0	2.6	4.4	0.7
FANCB	1	0	8.2	5	11.4
FANCB	2	1	5.9	12.7	-1
LOC441471	1	0	7.4	11.2	3.5
DDX46	1	-1	-2.6	7	-12.1
GPR4	1	1	15	-2.4	32.3
DMGDH	1	1	3.6	-5.3	12.5
LOC389048	1	1	15.6	12.8	18.5
GALK1	1	-1	4.9	27.5	-17.6
LOC388689	1	-1	3.6	29.7	-22.4
LOC440515	1	0	5	8.7	1.3
LOC442003	1	1	9.4	6.1	12.6
MYC	1	0	-1.9	-6.7	2.9
OR6Y1	1	1	6.9	-10.8	24.7
ZNF746	1	0	-0.2	1.1	-1.4
USP53	1	0	-0.4	-3.8	2.9
LOC400730	1	1	4.3	-10.8	19.3
SEMA6D	1	1	3.3	-13.1	19.8
GPR107	1	0	-1.3	-2	-0.6
PGC	1	0	-5.7	1.7	-13
CHRNB1	1	-1	-7.7	-13.4	-2
TMPRSS2	1	0	9.3	11.6	7
BAHD1	1	0	5	7	2.9
SLIT1	1	1	2	28.2	-24.2
GTPBP3	1	1	11.6	24.4	-1.2
LINC01118	1	-1	-8.8	-2	-15.6

9 entries from above, set out differently.
{"Target gene":"ZNF746","reagent no.":1,"two-siRNA summed score (-2 to +2)":0,"mean protection from cisplatin (shift in death) (%)":-0.2,"protection from cisplatin (shift in death), siRNA C (%)":1.1,"protection from cisplatin (shift in death), siRNA D (%)":-1.4}
{"Target gene":"USP53","reagent no.":1,"two-siRNA summed score (-2 to +2)":0,"mean protection from cisplatin (shift in death) (%)":-0.4,"protection from cisplatin (shift in death), siRNA C (%)":-3.8,"protection from cisplatin (shift in death), siRNA D (%)":2.9}
{"Target gene":"LOC400730","reagent no.":1,"two-siRNA summed score (-2 to +2)":1,"mean protection from cisplatin (shift in death) (%)":4.3,"protection from cisplatin (shift in death), siRNA C (%)":-10.8,"protection from cisplatin (shift in death), siRNA D (%)":19.3}
{"Target gene":"SEMA6D","reagent no.":1,"two-siRNA summed score (-2 to +2)":1,"mean protection from cisplatin (shift in death) (%)":3.3,"protection from cisplatin (shift in death), siRNA C (%)":-13.1,"protection from cisplatin (shift in death), siRNA D (%)":19.8}
{"Target gene":"GPR107","reagent no.":1,"two-siRNA summed score (-2 to +2)":0,"mean protection from cisplatin (shift in death) (%)":-1.3,"protection from cisplatin (shift in death), siRNA C (%)":-2,"protection from cisplatin (shift in death), siRNA D (%)":-0.6}
{"Target gene":"PGC","reagent no.":1,"two-siRNA summed score (-2 to +2)":0,"mean protection from cisplatin (shift in death) (%)":-5.7,"protection from cisplatin (shift in death), siRNA C (%)":1.7,"protection from cisplatin (shift in death), siRNA D (%)":-13}
{"Target gene":"CHRNB1","reagent no.":1,"two-siRNA summed score (-2 to +2)":-1,"mean protection from cisplatin (shift in death) (%)":-7.7,"protection from cisplatin (shift in death), siRNA C (%)":-13.4,"protection from cisplatin (shift in death), siRNA D (%)":-2}
{"Target gene":"TMPRSS2","reagent no.":1,"two-siRNA summed score (-2 to +2)":0,"mean protection from cisplatin (shift in death) (%)":9.3,"protection from cisplatin (shift in death), siRNA C (%)":11.6,"protection from cisplatin (shift in death), siRNA D (%)":7}
{"Target gene":"BAHD1","reagent no.":1,"two-siRNA summed score (-2 to +2)":0,"mean protection from cisplatin (shift in death) (%)":5,"protection from cisplatin (shift in death), siRNA C (%)":7,"protection from cisplatin (shift in death), siRNA D (%)":2.9}
